From the supplement of paper PMC12067093, “Discovery and optimisation of a covalent ligand for TRIM25 and its application to targeted protein ubiquitination” (Chemical Science, 2025)
This is one part of the list.

Sequences of proteins named here, by UniProt entry; tags and fusion partners are left off. A change or cut given only in a name is not applied to a line headed by its entry.
UniProt Q9NRX1: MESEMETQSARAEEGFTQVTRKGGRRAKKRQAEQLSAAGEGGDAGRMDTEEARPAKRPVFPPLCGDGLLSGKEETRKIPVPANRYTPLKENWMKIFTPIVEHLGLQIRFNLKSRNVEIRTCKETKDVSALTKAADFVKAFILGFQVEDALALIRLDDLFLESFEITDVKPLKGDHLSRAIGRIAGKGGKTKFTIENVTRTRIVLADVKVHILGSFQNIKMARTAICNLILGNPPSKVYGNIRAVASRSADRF
UniProt P29590: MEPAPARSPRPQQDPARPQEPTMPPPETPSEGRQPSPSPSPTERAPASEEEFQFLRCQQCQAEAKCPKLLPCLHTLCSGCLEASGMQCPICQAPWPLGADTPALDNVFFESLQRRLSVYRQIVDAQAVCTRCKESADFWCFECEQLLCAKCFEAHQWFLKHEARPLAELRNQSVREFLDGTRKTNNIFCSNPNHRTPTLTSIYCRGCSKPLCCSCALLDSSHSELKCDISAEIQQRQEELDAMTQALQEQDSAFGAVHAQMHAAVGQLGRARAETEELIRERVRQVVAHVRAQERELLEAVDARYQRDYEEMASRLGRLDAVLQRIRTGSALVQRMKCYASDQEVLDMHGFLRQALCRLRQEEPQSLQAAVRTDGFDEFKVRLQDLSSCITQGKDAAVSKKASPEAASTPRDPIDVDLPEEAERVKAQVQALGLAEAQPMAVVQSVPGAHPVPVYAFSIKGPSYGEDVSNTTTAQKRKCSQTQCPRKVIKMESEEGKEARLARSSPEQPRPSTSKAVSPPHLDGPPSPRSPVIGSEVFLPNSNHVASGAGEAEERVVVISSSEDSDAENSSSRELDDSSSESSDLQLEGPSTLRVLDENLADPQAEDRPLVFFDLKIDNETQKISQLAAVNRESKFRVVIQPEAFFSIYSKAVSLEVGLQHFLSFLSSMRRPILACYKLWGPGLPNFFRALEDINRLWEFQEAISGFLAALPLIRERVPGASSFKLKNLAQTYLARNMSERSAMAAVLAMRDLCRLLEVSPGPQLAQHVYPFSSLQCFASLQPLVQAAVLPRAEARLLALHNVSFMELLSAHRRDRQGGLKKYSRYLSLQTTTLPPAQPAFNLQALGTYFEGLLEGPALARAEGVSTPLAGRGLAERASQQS
UniProt P42336, whole entry: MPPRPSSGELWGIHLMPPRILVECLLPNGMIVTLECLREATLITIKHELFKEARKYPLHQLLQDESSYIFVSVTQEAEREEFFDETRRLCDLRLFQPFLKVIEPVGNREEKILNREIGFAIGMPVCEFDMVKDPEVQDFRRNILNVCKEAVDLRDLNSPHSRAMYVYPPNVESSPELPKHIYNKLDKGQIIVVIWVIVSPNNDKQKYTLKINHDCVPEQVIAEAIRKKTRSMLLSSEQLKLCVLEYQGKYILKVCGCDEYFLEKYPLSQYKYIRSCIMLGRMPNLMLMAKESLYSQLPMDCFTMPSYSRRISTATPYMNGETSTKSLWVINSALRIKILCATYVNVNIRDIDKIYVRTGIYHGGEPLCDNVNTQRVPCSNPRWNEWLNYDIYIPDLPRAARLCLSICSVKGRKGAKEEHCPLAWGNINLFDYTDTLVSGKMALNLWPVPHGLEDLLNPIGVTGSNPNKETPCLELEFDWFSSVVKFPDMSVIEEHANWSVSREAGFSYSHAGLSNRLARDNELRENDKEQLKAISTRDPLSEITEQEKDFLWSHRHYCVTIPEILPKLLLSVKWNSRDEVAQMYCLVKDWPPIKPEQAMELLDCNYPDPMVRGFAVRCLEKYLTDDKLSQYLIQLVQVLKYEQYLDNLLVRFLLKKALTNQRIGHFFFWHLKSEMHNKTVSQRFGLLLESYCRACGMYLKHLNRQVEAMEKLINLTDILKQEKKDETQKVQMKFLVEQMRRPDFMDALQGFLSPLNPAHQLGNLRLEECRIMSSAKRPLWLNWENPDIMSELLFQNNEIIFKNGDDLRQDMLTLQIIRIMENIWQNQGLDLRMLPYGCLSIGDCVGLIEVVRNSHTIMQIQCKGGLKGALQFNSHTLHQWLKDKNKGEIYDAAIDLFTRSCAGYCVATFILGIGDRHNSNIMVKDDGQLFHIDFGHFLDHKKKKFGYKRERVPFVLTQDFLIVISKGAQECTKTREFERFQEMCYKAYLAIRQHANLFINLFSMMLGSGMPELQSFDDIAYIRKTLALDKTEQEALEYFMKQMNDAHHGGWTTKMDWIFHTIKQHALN
UniProt Q9H8W4: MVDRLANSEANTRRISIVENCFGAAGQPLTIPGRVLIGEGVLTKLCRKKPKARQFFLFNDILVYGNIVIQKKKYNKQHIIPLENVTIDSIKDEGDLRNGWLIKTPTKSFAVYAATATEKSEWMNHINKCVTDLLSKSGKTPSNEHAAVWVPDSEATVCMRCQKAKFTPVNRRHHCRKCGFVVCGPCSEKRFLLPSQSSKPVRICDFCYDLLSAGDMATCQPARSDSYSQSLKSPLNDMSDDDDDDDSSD
UniProt Q01970, whole entry, looked up: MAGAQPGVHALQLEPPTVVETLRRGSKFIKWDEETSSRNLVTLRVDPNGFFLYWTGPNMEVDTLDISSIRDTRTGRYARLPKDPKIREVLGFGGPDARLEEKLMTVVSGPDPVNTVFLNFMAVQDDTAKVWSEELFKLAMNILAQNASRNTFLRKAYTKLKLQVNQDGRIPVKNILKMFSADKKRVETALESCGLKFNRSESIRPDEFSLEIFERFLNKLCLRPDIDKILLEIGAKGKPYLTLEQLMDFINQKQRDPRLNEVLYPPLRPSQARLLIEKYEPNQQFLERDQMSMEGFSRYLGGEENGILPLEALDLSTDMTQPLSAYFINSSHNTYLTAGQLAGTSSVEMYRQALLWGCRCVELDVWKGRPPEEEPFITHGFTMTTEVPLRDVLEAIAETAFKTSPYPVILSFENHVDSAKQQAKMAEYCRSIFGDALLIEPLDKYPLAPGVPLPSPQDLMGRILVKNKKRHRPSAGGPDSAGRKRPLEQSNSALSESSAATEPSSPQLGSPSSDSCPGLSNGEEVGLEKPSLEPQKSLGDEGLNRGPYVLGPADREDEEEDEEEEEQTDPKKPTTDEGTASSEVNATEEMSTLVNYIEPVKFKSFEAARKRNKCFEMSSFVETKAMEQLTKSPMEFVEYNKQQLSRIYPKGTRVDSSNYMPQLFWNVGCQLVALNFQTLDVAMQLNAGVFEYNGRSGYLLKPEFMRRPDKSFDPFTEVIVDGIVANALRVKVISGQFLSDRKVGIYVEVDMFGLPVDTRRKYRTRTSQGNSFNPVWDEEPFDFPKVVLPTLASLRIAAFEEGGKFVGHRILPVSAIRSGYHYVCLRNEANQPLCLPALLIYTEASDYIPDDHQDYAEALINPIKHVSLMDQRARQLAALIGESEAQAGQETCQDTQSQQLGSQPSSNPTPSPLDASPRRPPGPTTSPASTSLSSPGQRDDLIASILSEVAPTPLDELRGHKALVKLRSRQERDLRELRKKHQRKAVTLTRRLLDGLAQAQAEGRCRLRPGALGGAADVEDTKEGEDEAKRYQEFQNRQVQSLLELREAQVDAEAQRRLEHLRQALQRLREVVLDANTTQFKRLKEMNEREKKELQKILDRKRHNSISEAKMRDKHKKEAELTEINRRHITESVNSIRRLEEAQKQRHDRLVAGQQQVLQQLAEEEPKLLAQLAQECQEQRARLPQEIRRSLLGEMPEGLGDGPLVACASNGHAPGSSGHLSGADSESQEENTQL
UniProt Q9HB19: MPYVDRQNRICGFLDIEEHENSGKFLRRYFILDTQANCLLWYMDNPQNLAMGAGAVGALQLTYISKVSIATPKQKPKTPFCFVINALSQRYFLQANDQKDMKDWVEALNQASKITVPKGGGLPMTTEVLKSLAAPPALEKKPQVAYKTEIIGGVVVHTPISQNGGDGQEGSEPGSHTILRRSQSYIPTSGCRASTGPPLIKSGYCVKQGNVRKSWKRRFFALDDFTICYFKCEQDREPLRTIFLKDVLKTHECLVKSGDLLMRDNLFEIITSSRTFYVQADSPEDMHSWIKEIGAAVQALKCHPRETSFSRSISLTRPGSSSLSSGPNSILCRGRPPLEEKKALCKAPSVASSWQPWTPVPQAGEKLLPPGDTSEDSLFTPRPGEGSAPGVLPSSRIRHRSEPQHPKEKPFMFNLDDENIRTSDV
UniProt Q58EX7: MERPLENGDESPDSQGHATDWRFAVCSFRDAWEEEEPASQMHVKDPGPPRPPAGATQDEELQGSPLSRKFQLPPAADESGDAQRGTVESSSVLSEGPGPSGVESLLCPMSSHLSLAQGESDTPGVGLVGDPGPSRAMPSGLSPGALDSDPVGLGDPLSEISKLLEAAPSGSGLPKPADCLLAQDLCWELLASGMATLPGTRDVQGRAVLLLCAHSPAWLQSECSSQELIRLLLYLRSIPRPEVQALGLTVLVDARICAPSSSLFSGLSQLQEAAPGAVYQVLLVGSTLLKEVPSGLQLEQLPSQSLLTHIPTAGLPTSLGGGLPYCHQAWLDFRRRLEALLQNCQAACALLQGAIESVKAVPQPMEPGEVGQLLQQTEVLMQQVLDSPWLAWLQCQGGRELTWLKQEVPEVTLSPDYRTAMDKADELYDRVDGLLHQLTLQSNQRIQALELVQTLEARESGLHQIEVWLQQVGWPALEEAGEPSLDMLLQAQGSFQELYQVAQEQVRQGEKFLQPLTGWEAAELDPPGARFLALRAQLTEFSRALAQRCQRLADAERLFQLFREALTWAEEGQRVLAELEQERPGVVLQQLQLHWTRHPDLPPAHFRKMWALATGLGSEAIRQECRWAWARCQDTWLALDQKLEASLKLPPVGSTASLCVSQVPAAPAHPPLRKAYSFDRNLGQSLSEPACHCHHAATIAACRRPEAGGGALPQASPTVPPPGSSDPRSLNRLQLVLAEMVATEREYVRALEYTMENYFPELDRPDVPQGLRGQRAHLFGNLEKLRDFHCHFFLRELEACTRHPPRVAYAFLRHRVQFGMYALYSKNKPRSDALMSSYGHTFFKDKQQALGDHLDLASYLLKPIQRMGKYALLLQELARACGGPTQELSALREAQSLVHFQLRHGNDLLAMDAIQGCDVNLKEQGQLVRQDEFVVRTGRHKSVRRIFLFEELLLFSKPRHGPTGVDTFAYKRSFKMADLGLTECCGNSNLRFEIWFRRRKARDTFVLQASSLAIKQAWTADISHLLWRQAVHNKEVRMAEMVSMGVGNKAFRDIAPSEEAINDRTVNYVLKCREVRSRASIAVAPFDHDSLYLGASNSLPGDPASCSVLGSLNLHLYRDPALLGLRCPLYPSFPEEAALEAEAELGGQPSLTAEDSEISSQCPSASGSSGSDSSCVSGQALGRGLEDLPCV
UniProt P19174: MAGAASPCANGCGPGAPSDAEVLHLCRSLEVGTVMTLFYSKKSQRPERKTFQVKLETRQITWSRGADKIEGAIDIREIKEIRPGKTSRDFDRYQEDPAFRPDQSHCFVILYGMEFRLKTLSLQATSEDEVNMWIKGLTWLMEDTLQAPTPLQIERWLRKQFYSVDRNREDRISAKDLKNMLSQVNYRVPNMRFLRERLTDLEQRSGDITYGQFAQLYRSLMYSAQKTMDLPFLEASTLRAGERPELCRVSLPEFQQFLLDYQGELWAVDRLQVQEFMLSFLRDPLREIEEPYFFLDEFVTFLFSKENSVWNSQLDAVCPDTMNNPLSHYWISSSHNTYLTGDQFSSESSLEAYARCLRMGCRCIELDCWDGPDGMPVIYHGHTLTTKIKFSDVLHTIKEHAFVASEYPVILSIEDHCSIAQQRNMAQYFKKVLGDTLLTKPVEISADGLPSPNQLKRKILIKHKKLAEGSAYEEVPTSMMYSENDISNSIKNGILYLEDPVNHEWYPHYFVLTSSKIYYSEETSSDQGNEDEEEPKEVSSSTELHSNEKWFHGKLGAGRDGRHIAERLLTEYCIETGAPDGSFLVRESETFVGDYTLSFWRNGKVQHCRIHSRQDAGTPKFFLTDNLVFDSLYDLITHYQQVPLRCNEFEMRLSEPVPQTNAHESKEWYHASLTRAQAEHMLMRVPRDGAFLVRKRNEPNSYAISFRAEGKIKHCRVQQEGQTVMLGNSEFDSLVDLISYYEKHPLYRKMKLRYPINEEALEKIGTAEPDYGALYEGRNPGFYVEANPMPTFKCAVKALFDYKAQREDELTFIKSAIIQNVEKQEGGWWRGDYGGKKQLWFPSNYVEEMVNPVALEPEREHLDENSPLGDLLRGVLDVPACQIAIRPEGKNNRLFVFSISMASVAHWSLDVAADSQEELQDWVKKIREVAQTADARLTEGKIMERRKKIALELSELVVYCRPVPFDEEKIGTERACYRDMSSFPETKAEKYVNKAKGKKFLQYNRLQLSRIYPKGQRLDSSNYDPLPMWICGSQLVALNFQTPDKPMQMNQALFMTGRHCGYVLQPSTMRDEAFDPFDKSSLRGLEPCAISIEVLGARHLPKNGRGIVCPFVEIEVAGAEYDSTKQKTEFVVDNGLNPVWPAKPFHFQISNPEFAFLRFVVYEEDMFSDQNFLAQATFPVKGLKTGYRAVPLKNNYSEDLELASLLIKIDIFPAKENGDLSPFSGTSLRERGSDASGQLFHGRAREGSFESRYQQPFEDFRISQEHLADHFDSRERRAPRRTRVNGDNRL

Compound: CC1Cc2ccccc2N1C(=O)C1CCCN(C1)C(=O)CCl (mixture of isomers) [TRIM25 ligand 11 (diastereomer mixture)]
Experiment: probe-labelled cysteine peptide fold change vs DMSO (competition) (log2 fold change); higher = less target engagement (more negative = stronger competition)
Conditions: 10 µM; THP-1; incubation time: 4 h
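Also: competitive chemoproteomic profiling in live THP-1 cells with an iodoacetamide desthiobiotin (IA-DTB) probe, comparing probe-labelled peptide intensities in compound-treated cells against DMSO-treated controls.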

Target	probe-labelled cysteine peptide fold change
PNO1_Q9NRX1_64_RPVFPPLCGDGLLSGK (UniProt Q9NRX1)	0.00892
PLEC_Q15149_950_LPLLAVCDYK (UniProt Q15149)	-0.0639
PML_P29590_129_QIVDAQAVCTR (UniProt P29590)	0.0212
PIK3CA_P42336_215_INHDCVPEQVIAEAIR (UniProt P42336)	0.117
PLD3_Q8IV08_487_SQLEAIFLRDWDSPYSHDLDTSADSVGNACR (UniProt Q8IV08)	-0.137
PLEKHF2_Q9H8W4_158_TPSNEHAAVWVPDSEATVCMR (UniProt Q9H8W4)	-0.12
PLCB3_Q01970_360_CVELDVWK (UniProt Q01970)	0.000957
PLPBP_O94903_86_ILSLCPEIK (UniProt O94903)	-0.141
PMPCB_O75439_265_FHFGDSLCTHK (UniProt O75439)	0.0698
PLEKHA2_Q9HB19_81_TPFCFVINALSQR (UniProt Q9HB19)	0.0911
PLEKHF2_Q9H8W4_219_ICDFCYDLLSAGDMATCQPAR (UniProt Q9H8W4)	-0.379
PLEKHG4_Q58EX7_917_HGNDLLAMDAIQGCDVNLK (UniProt Q58EX7)	0.0117
PLCG1_P19174_1088_GLEPCAISIEVLGAR (UniProt P19174)	0.0595
PLIN3_O60664_60_TVCDAAEK (UniProt O60664)	0.00363
PLD4_Q96BZ4_379_LLVGCGLNTDPTMFPYLR (UniProt Q96BZ4)	0.0996
PITRM1_Q5JRX3_477_QCLQENPK (UniProt Q5JRX3)	-0.165

Some of the entries so far, with bars between the fields.
Target | probe-labelled cysteine peptide fold change
PLD3_Q8IV08_487_SQLEAIFLRDWDSPYSHDLDTSADSVGNACR (UniProt Q8IV08) | -0.137
PLEKHF2_Q9H8W4_158_TPSNEHAAVWVPDSEATVCMR (UniProt Q9H8W4) | -0.12
